No constants are given. Whether binding was seen depends on the method and setting. In cells and extracts the contact can be indirect. A result given as binding can be weak or reduced; the word gives no strength.

By UniProt entry, the sequences of proteins in these tests, tags left out. Where a name states a change or a piece, a line headed by the entry shows the natural chain unless it says otherwise.
UniProt Q07812: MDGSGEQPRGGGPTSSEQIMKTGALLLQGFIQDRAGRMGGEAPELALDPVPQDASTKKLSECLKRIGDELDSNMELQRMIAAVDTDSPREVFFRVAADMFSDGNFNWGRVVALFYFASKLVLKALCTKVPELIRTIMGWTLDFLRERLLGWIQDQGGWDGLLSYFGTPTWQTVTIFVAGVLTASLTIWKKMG
UniProt O75317: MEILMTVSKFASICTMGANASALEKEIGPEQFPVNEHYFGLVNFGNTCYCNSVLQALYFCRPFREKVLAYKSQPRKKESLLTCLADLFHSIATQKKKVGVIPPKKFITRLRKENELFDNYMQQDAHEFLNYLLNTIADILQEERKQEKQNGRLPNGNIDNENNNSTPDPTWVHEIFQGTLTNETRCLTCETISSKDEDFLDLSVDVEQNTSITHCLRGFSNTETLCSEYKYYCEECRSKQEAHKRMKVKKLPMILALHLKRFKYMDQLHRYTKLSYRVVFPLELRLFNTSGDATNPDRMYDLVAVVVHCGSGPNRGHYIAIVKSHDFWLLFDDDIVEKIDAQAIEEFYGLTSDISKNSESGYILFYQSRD

This test concerns the target GST-Bax (pGEX-4T-3-Bax) (human (cDNA from HeLa cells)) (UniProt Q07812). Put plainly: pull-down; GST-Bax from E. coli BL21 (DE3) as bait; bound protein detected by Western blotting; source of USP12 not stated. A general note: In western blotting, separated proteins are transferred to a membrane and probed.

In the case of “ubiquitin-specific protease 12 (USP12), as used in the immunoprecipitation and GST pull-down (from UniProt O75317 1-370) (enzyme)”, the binding result was “binds”.

(Values after paper PMC9657785.)
